Consider 1 molecule from publication PMC9346003.

The target of the assay is T1, myc-TAK1 1-606aa full length (UniProt O43318).
T1 sequence: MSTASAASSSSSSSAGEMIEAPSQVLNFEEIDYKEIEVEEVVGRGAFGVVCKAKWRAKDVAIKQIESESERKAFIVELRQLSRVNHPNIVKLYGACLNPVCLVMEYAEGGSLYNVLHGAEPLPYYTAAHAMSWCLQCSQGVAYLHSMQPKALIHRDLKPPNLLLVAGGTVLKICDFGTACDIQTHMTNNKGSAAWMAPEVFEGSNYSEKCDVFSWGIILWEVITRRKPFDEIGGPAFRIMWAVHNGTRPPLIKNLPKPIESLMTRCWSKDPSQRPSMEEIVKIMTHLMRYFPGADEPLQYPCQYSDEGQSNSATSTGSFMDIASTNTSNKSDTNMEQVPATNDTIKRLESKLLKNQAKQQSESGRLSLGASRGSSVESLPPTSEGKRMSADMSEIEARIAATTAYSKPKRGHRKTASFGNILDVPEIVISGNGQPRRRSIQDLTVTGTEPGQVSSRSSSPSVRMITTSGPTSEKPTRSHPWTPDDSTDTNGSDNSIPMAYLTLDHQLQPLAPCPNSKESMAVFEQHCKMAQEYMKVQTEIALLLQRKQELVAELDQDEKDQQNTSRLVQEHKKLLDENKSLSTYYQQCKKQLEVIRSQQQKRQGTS
Put plainly: co-IP; 293T cells transfected with vector control or Flag-GPX4 and Myc-TAK1 for 48 h; Myc-IP; more TAB1 with TAK1 when GPX4 was overexpressed.

No constants are given. Whether binding was seen depends on the method and setting. In cells and extracts the contact can be indirect. Some entries that bind do so weakly or less than the wild type. Where a sequence is shown, tags or fusion partners need not be part of it.

B1: TAB1, endogenous in 293T cells (protein, UniProt Q15750 1-504)
chain: MAAQRRSLLQSEQQPSWTDDLPLCHLSGVGSASNRSYSADGKGTESHPPEDSWLKFRSENNCFLYGVFNGYDGNRVTNFVAQRLSAELLLGQLNAEHAEADVRRVLLQAFDVVERSFLESIDDALAEKASLQSQLPEGVPQHQLPPQYQKILERLKTLEREISGGAMAVVAVLLNNKLYVANVGTNRALLCKSTVDGLQVTQLNVDHTTENEDELFRLSQLGLDAGKIKQVGIICGQESTRRIGDYKVKYGYTDIDLLSAAKSKPIIAEPEIHGAQPLDGVTGFLVLMSEGLYKALEAAHGPGQANQEIAAMIDTEFAKQTSLDAVAQAVVDRVKRIHSDTFASGGERARFCPRHEDMTLLVRNFGYPLGEMSQPTPSPAPAAGGRVYPVSVPYSSAQSTSKTSVTLSLVMPSQGQMVNGAHSASTLDEATPTLTNQSPTLTLQSTNTHTQSSSSSSDGGLFRSRPAHSLPPGEDGRVEPYVDFAEFYRLWSVDHGEQSVVTAP
As to B1, the binding entry is given as “binds”.
